Measured values reported in patent publication US20160009772A1 (priority 2012, published 2016).

How the values were obtained:
[1] = peptide made by a vendor (Fmoc solid-phase peptide synthesis; Rink Amide MBHA resin; Fmoc-Linker-Rink amide resin; HBTU or DIC, HOBT added); details: whole synthesis, scale of the general procedure 0.4 mm; for final purity (method not given) / final HPLC purity: analytical HPLC
[2] = peptide made by a vendor (Fmoc solid-phase peptide synthesis; Fmoc Rink Amide MBHA resin; HBTU or DIC, HOBT added); details: whole synthesis
[3] = peptide made by a vendor (Fmoc solid-phase peptide synthesis; Fmoc-Linker-Rink amide resin; HBTU or DIC, HOBT added); details: whole synthesis, scale 0.15 mmole

| Substance | final purity (method not given) [1] | isolated yield [1] [%] | isolated mass [2] [mg] | final HPLC purity [1] [%] | isolated yield [3] [%] |
| --- | --- | --- | --- | --- | --- |
| PEPTIDE1{[ac].M.A.N.L.G.Y.W.L.L.A.L.F.V.T.Y.W.T.D.L.G.L.V.K.K.R.P.K.P.[am]}$$$$V2.0 | >:97.7% | 14.7 | 210 |  |  |
| Ac-IRLQISNPDLKDLMVQWFKDGGPSSGAPPPS-NH2 |  |  |  | >95 | 20 |
| Ac-MIILIISFPKHKDWKVILVK-NH2 | 97.4% | 4.8 | 118 |  |  |
| PEPTIDE1{[ac].M.A.N.L.G.Y.W.L.L.L.L.F.V.T.M.W.T.D.V.G.L.A.K.K.R.P.K.P.[am]}$$$$V2.0 | 95.4% | 9.4 | 145 |  |  |
| Ac-IRLQISNPYLKFIPLKRAIWLIK-NH2 | 96.9% | 10.2 | 125 |  |  |
| PEPTIDE1{[ac].M.A.N.L.G.Y.W.L.A.L.L.F.V.T.M.W.T.D.V.G.L.F.K.K.R.P.K.P.[am]}$$$$V2.0 | 96.4% | 7.0 | 116 |  |  |
| PEPTIDE1{[ac].M.A.N.L.G.Y.W.L.Y.A.L.F.L.T.M.V.T.D.V.G.L.F.K.K.R.P.K.P.[am]}$$$$V2.0 | >96% | 5.8 | 189 |  |  |
| Ac-PFPPLPIGEEAPKDDMVRFFKDLHQYLNVV-NH2 |  |  |  | >95 | 20 |

For some of these results: Strings that start with PEPTIDE1 are HELM notation: dots part the residues, brackets hold end groups and non-standard residues.
